This assay deals with T1, Phosphoinositide-3-kinase (PI3K)-interacting protein 1 (PIK3IP1) (rat (endogenous in H9c2)) (UniProt Q56A20).
T1 sequence: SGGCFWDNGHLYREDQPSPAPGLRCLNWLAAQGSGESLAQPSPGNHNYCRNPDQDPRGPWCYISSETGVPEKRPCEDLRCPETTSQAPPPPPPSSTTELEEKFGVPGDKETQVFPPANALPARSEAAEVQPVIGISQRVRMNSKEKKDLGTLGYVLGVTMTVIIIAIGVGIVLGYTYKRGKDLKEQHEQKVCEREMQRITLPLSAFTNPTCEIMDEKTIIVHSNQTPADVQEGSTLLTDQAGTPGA
In words: co-IP; H9c2 cells lysed in NP-40 buffer with protease inhibitors; Dynabeads protein G with 10 μL of antibodies or rabbit IgG (mock IP); eluted proteins detected by Western blotting. In general terms: Immunoblotting shows a protein as a band on a membrane.

No constants are given. Whether binding was seen depends on the method and setting. Binding seen in cells or lysates may run through a third protein. A result given as binding can be weak or reduced; the word gives no strength.

Regarding “p110γ (catalytic subunit of PI3Kγ) (rat (endogenous in H9c2))”, the binding entry was “binds”.

These data come from article PMC9322903.
